Reference: paper doi:10.1101/286708
These are yes or no findings as the source states them, for the method shown. Binding seen in cells or lysates may run through a third protein. Some results given as binding are weak or reduced against the parent protein; the word gives no strength. Sequences can lack the tags named with a protein.

The chains behind the UniProt entries cited, without tags or fusion partners.
UniProt Q00987: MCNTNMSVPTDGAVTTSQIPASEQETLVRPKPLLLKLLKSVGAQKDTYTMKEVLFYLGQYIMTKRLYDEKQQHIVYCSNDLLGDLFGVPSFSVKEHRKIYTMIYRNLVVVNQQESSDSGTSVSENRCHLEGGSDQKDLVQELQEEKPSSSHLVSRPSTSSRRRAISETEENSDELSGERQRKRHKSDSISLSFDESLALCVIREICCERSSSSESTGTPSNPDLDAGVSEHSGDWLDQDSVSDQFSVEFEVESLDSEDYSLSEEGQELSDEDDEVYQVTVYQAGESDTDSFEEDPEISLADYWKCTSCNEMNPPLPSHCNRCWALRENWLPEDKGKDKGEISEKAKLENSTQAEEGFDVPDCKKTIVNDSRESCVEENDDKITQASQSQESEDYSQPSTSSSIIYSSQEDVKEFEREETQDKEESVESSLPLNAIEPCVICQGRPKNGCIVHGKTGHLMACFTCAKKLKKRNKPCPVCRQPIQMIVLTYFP

Molecular target: T1, FLAG-PER2(S662D) expressed in HCT116 p53+/+ cells (human) (UniProt O15055)
T1 sequence: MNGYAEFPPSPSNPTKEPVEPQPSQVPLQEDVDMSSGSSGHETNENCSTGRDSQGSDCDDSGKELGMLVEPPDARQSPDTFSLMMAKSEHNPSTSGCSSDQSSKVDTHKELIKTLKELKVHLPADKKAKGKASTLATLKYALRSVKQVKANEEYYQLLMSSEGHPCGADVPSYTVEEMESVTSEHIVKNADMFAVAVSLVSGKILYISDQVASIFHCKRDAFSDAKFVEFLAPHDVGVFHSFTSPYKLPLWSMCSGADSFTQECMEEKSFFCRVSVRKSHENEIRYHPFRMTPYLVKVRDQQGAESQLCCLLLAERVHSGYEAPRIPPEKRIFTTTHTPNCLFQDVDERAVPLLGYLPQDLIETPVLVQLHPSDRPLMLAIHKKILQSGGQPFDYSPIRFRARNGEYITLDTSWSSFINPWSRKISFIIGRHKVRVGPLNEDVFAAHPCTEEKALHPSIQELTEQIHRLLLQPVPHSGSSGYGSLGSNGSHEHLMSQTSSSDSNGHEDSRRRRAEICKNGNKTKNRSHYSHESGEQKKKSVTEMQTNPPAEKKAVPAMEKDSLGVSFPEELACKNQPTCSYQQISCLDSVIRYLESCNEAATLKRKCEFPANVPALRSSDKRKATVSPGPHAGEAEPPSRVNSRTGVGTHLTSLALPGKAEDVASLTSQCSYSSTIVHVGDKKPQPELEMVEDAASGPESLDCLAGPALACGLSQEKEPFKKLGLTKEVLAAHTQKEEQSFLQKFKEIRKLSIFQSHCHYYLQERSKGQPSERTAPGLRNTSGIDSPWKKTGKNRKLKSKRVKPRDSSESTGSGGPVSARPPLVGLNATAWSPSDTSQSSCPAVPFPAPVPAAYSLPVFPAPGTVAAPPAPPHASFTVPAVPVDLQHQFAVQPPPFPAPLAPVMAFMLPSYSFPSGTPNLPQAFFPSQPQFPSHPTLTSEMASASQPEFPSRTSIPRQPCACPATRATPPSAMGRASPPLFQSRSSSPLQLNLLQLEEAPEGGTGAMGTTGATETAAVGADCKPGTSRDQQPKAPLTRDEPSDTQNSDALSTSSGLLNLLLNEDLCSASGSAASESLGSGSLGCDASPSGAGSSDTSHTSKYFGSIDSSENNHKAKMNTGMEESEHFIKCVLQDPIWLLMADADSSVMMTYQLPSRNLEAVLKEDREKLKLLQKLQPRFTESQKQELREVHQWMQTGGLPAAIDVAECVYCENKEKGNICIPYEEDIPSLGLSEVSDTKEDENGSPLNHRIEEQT
Test: co-IP

binding: binds
Substance: endogenous MDM2 of HCT116 p53+/+ cells (from UniProt Q00987 1-491)
